Data on 27 targets can be found in the supplement of paper PMC10849652.

Amino acid sequences for entries named in this document (tags omitted). A change or cut given only in a name is not applied to a line headed by its entry.
UniProt Q2TB18: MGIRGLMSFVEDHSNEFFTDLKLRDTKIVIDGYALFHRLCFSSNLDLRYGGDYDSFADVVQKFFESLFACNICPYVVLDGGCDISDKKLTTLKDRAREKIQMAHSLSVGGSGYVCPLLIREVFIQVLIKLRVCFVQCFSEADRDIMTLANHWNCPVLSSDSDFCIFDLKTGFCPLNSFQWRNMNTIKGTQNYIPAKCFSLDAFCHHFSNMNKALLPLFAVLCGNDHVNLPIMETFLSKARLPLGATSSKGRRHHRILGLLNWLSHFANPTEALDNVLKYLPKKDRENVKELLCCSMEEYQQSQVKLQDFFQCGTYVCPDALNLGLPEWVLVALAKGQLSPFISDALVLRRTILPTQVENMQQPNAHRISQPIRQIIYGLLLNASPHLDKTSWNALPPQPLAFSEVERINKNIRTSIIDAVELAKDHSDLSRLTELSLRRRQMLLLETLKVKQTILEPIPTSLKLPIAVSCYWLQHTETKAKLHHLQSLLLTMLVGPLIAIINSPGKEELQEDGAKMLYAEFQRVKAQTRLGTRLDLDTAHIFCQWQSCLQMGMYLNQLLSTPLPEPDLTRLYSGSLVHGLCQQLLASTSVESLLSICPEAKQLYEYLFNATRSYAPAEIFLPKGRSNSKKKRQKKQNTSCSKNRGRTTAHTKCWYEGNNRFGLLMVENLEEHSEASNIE
UniProt Q96NS5: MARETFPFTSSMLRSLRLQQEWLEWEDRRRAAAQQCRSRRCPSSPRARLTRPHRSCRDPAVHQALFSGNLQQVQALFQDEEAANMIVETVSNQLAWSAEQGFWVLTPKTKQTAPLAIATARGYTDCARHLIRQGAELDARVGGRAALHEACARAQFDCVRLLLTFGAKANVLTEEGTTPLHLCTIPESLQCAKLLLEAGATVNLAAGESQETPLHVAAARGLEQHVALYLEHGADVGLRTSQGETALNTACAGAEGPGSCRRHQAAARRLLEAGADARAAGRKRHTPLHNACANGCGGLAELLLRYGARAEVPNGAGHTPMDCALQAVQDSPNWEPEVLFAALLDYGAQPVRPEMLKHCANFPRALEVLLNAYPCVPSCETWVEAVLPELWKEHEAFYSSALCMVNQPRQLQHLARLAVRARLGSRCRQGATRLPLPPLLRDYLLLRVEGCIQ
UniProt B2RBV5: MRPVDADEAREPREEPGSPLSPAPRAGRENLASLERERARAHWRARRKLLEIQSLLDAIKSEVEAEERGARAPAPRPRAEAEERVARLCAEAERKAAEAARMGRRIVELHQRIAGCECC
UniProt P18846: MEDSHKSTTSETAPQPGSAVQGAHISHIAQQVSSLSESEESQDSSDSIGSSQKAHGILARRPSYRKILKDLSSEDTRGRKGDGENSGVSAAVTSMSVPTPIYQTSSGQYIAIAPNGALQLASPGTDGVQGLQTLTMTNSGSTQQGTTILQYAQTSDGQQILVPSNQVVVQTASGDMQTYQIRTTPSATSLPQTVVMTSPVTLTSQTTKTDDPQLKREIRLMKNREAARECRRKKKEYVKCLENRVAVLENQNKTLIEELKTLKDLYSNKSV
UniProt Q96DX5: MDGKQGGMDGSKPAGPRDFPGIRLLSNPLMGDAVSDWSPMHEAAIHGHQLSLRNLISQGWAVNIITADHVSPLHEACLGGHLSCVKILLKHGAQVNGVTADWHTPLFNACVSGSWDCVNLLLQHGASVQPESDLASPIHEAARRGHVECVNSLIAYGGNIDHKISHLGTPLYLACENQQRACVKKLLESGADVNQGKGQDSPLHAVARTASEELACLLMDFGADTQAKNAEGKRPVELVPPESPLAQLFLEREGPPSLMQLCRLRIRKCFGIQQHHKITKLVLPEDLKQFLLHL
UniProt Q9C0F0: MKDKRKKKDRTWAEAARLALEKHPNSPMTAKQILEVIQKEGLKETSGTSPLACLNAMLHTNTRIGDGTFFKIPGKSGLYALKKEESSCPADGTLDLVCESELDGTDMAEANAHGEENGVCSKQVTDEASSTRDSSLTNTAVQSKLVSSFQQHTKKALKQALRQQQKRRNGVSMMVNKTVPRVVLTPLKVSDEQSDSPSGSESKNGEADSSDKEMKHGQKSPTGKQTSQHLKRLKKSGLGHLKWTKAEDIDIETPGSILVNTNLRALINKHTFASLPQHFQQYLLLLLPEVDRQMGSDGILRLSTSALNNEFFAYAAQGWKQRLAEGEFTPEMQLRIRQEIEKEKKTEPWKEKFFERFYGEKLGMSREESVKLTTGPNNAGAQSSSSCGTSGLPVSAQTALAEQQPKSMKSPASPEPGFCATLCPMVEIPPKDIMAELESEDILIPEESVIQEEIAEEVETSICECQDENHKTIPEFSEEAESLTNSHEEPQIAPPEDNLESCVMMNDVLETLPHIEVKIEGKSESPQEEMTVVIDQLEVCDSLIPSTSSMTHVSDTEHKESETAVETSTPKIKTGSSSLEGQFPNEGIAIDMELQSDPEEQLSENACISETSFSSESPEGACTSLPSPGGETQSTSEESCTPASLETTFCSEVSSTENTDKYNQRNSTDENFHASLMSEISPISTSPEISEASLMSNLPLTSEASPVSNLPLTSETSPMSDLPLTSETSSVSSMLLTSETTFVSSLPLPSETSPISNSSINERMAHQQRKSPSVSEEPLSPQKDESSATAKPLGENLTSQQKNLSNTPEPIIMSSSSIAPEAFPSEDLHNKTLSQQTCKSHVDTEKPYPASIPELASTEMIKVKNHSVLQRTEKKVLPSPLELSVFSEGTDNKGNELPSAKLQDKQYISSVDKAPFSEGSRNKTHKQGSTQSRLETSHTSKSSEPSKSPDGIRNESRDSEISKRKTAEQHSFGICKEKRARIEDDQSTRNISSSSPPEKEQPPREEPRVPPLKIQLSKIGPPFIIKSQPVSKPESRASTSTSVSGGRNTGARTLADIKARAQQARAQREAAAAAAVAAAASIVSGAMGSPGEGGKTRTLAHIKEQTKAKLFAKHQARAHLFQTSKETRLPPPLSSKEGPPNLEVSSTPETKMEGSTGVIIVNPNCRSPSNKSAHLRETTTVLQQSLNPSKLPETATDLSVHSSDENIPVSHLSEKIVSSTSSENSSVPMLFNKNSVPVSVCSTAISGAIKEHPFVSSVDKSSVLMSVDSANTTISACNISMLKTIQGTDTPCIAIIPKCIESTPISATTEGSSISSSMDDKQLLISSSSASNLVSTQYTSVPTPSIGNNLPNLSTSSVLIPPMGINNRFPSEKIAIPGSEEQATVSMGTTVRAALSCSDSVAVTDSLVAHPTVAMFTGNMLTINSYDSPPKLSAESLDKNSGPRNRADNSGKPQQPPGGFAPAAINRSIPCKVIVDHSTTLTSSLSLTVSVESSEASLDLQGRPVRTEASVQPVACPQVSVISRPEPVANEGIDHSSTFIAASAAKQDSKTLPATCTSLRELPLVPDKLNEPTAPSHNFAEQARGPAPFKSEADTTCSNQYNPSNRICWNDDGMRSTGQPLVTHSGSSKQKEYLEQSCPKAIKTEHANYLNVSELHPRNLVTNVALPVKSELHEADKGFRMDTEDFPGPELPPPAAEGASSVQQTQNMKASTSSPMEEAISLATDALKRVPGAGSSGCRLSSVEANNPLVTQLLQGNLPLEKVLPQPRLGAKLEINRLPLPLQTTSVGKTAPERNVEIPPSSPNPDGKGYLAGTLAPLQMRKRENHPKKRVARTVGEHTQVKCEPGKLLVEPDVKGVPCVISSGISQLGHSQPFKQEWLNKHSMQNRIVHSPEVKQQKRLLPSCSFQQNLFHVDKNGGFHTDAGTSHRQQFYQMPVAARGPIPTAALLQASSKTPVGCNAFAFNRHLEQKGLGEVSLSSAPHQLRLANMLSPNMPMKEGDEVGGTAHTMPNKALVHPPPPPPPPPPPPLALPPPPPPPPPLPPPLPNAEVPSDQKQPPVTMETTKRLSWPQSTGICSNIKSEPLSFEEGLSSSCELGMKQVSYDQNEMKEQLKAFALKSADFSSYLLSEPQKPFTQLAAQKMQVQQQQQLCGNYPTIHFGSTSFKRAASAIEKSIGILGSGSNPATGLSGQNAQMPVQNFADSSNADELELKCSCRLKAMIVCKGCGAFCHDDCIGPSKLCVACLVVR
UniProt Q93050, whole entry, looked up: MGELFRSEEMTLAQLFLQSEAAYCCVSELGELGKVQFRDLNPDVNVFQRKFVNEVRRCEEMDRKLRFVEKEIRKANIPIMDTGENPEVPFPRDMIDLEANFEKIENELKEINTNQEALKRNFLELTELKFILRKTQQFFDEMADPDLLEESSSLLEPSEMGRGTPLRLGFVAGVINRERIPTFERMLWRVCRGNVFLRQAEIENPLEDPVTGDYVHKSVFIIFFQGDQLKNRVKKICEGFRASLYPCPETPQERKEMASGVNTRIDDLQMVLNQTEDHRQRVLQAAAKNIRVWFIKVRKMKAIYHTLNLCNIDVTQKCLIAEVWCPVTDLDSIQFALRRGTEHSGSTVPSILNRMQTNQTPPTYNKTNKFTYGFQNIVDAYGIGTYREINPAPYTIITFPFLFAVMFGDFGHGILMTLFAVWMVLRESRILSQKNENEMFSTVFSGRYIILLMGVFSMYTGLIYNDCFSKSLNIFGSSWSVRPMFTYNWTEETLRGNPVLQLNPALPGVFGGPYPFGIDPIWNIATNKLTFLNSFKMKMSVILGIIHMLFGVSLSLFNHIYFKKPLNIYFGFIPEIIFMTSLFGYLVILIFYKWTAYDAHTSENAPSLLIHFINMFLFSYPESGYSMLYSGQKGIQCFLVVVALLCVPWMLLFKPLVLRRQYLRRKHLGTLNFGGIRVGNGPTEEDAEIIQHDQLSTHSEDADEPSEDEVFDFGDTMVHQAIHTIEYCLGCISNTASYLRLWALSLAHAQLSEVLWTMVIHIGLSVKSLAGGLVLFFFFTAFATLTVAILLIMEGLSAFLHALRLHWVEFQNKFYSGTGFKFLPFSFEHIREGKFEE
UniProt Q14CW9: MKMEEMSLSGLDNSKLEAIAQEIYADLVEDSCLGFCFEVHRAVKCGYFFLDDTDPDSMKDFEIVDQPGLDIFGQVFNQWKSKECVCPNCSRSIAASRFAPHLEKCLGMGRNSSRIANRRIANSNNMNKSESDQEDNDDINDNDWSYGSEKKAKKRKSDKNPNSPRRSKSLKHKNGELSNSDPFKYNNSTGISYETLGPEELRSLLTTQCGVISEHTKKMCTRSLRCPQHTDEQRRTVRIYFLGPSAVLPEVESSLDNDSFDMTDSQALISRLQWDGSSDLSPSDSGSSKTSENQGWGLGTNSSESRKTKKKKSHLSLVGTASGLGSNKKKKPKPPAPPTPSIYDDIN
UniProt Q9NWL6: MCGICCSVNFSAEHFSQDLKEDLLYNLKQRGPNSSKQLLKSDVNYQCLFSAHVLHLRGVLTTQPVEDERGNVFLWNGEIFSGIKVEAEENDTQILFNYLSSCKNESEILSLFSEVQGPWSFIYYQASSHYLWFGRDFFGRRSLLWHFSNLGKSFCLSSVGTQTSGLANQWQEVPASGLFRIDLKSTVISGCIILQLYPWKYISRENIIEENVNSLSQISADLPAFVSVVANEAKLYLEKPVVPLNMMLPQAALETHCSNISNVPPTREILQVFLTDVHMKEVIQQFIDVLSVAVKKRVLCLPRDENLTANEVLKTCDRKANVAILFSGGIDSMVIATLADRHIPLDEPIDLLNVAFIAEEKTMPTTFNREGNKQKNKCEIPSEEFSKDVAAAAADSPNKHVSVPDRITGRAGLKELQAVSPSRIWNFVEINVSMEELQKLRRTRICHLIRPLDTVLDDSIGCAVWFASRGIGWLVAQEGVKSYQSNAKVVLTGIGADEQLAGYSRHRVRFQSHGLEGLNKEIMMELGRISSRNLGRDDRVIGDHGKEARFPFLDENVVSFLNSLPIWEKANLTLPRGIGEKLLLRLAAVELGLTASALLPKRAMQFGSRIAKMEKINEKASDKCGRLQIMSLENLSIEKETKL
UniProt Q96L58: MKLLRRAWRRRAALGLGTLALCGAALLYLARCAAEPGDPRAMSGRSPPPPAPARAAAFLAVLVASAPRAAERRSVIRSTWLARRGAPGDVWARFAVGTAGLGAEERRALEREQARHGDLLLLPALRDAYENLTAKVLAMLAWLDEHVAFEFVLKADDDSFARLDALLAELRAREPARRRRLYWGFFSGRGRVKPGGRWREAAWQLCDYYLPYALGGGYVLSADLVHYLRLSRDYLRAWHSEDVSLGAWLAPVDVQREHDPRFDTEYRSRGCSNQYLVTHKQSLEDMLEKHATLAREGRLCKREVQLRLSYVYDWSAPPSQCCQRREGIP
UniProt Q6P4H8: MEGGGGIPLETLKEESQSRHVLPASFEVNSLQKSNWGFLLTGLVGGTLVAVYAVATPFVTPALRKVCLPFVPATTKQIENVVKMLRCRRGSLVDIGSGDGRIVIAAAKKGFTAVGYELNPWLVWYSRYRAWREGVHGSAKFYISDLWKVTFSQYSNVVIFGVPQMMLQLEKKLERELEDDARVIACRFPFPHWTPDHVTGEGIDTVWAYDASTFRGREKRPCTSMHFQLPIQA

This is one part of the list.

Compound in the first test: CCCS(=O)(=O)Nc1ccc(F)c(C(=O)c2c[nH]c3ncc(Cl)cc23)c1F
Nature of the test: log2 fold change, soluble protein after heating vs DMSO (PISA); higher = thermal stabilisation; K562 lysate, 10 uM; active = over 0.2 and 3.5 SD of the protein, either way, in both replicates (recomputed). The procedure, abridged:
(§1)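 K562 pellets were dounce-homogenised in PBS pH 7.4 containing 1 mM MgCl2, and the crude extract, at 1 mg/mL protein, was exposed to 10 μM compound for 30 min. Aliquots were heated for 3 min across 48°C-58°C, pooled, brought to 0.5% NP-40 at 4°C and spun at 21,000xg for 90 min, with the supernatant taken as soluble protein. TMTpro 16plex LC-MS/MS with equalised channel sums quantified that protein. Values are log-two fold changes in thermal stability relative to solvent controls, taken from duplicates.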
For ASTE1 (UniProt Q2TB18), the log2 fold change was inactive: -0.148.

On to ASS1 (UniProt P00966), for which the log2 fold change is inactive: 0.093. On to ASB16 (UniProt Q96NS5), for which the log2 fold change is inactive: 0.039. Still for that read-out and setting: for ATE1 (UniProt O95260) the value was inactive: 0.061; for NA (UniProt B2RBV5), inactive: 0.054. For the target ATF1 (UniProt P18846), the log2 fold change was inactive: 0.015. The same measure, in the same setting: then ASB9 (UniProt Q96DX5), with inactive: -0.151; and ASXL3 (UniProt Q9C0F0), with inactive: -0.079; and B3GALNT2 (UniProt Q8NCR0), with inactive: -0.137. On the same count and under the same terms, for ASXL1 (UniProt Q8IXJ9) the value was inactive: 0.064; for ATP6V0A1 (UniProt Q93050), inactive: 0.067. Same read-out and setting: then ATG2A (UniProt Q2TAZ0), with inactive: -0.018; and ATP1B4 (UniProt Q9UN42), with inactive: 0.023.

As for ATP1B1 (UniProt P05026), the log2 fold change was inactive: 0.011.

ATXN7L3 isoform 2 (UniProt Q14CW9): the log2 fold change was inactive: -0.074. Same read-out and setting: for B3GNTL1 (UniProt Q67FW5) the value was inactive: -0.014; for ASXL2 (UniProt Q76L83), inactive: -0.023; for ATP5F1B (UniProt H0YI37), inactive: 0.07. ATP5F1A (UniProt K7ENJ4): the log2 fold change was inactive: 0.02.

In the case of ATP5F1B (UniProt F8W079), the log2 fold change was inactive: -0.21. On the same count and under the same terms, for ATP11C, A0A067XG54 the value was inactive: -0.066.

Compound in a further test: CCN(CCCOc1ccc2c(Nc3cc(CC(=O)Nc4cccc(F)c4)[nH]n3)ncnc2c1)CCOP(=O)(O)O [barasertib]
The description is as above. The procedure, abridged: as §1
As to ASS1 (UniProt P00966), the log2 fold change is inactive: 0.053. Still for that read-out and setting: then ATAD2B (UniProt Q9ULI0), with inactive: 0.093; and ATE1 (UniProt O95260), with inactive: -0.051; and ASNSD1 (UniProt Q9NWL6), with inactive: -0.051.

Consider B3GALT6 (UniProt Q96L58), for which the log2 fold change was inactive: 0.002. With NA (UniProt B2RBV5), the log2 fold change is inactive: 0.191. The same measure, in the same setting: for ATF1 (UniProt P18846) the value was inactive: -0.05. Take ATG4D (UniProt Q86TL0): the log2 fold change is inactive: -0.074. Same read-out and setting: for ASXL1 (UniProt Q8IXJ9) the value was inactive: -0.006; for ATP6V0A1 (UniProt Q93050), inactive: 0.128. Still for that read-out and setting: then ATPSCKMT (UniProt Q6P4H8), with inactive: -0.019; and ATG2A (UniProt Q2TAZ0), with inactive: 0.182.

In the case of ATP1B1 (UniProt P05026), the log2 fold change was inactive: -0.043. Still for that read-out and setting: then ATXN7L3 isoform 2 (UniProt Q14CW9), with inactive: 0.045; and B3GNTL1 (UniProt Q67FW5), with inactive: 0.113; and ASXL2 (UniProt Q76L83), with inactive: 0.001. With ATP5F1B (UniProt H0YI37), the log2 fold change was inactive: -0.324. Same read-out and setting: then ATP5F1C isoform 2 (UniProt P36542), with inactive: 0.073; and ATP5F1B (UniProt F8W079), with inactive: 0.134.

With ATP11C, A0A067XG54, the log2 fold change is inactive: 0.054.
